Test results: PMC4786218
Results are given in words; binding and its absence hold for the method and conditions named. For some of these results: In cells and extracts the contact can be indirect. Some results given as binding are weak or reduced against the parent protein; the word gives no strength.

T1: Hairless protein, endogenous in embryos (Drosophila (endogenous in wild type embryos)) (UniProt Q02308)
T1 sequence: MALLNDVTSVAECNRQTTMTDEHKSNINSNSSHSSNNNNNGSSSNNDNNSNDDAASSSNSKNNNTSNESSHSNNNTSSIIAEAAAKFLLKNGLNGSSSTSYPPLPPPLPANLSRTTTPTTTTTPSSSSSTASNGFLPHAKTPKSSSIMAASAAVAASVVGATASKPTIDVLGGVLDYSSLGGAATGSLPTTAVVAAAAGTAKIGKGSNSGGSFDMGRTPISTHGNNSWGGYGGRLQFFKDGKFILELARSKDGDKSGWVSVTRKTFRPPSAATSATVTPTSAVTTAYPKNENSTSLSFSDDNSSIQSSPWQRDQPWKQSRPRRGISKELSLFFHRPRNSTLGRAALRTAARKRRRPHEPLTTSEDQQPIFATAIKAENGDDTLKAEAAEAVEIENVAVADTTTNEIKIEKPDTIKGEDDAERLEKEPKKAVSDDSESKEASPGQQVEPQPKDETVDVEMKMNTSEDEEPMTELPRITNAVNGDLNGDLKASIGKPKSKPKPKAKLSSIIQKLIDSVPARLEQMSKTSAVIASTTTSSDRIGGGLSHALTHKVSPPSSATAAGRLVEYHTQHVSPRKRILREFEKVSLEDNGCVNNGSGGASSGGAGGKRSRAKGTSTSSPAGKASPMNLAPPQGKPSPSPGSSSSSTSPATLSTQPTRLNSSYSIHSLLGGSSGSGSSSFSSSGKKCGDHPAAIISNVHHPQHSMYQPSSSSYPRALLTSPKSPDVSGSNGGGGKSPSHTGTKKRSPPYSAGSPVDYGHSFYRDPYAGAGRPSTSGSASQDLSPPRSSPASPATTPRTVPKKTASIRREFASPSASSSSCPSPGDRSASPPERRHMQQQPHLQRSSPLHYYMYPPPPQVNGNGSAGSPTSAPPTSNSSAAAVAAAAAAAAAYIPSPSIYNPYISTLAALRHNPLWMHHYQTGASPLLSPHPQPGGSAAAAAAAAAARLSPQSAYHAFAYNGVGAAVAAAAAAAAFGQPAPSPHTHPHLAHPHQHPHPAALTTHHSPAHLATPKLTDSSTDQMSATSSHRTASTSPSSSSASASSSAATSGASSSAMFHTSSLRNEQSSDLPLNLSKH

T2: Cyclin G protein, endogenous in embryos (Drosophila (endogenous in wild type embryos)) (UniProt Q95TJ9)
T2 sequence: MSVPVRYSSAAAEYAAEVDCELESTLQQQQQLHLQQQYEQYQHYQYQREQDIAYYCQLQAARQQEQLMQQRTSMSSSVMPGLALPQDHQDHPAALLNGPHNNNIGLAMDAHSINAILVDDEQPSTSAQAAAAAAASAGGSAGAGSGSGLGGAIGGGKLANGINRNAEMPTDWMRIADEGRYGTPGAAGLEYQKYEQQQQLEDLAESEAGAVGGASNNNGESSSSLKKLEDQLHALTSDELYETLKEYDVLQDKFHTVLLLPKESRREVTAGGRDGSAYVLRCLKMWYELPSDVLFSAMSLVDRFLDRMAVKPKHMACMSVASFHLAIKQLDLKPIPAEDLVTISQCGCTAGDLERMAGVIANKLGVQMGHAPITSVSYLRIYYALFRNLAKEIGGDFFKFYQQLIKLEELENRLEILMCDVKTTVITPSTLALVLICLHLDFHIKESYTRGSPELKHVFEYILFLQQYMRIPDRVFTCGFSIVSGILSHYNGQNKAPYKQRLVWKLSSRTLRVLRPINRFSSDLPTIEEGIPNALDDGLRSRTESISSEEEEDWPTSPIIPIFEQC

T3: full length Hairless (HFL) (Drosophila) (UniProt Q02308)
T3 sequence: T1 sequence

B1: Cyclin G protein, endogenous in embryos (protein, UniProt Q95TJ9 1-566)
chain: T2 sequence
B2: Hairless protein, endogenous in embryos (protein, UniProt Q02308 1-1077)
chain: T1 sequence
B3: CycG deletion construct 215-566 (domain or fragment, UniProt Q95TJ9 215-566)
chain: SNNNGESSSSLKKLEDQLHALTSDELYETLKEYDVLQDKFHTVLLLPKESRREVTAGGRDGSAYVLRCLKMWYELPSDVLFSAMSLVDRFLDRMAVKPKHMACMSVASFHLAIKQLDLKPIPAEDLVTISQCGCTAGDLERMAGVIANKLGVQMGHAPITSVSYLRIYYALFRNLAKEIGGDFFKFYQQLIKLEELENRLEILMCDVKTTVITPSTLALVLICLHLDFHIKESYTRGSPELKHVFEYILFLQQYMRIPDRVFTCGFSIVSGILSHYNGQNKAPYKQRLVWKLSSRTLRVLRPINRFSSDLPTIEEGIPNALDDGLRSRTESISSEEEEDWPTSPIIPIFEQC
B4: CycG deletion construct 1-215 (domain or fragment, UniProt Q95TJ9 1-215)
chain: MSVPVRYSSAAAEYAAEVDCELESTLQQQQQLHLQQQYEQYQHYQYQREQDIAYYCQLQAARQQEQLMQQRTSMSSSVMPGLALPQDHQDHPAALLNGPHNNNIGLAMDAHSINAILVDDEQPSTSAQAAAAAAASAGGSAGAGSGSGLGGAIGGGKLANGINRNAEMPTDWMRIADEGRYGTPGAAGLEYQKYEQQQQLEDLAESEAGAVGGAS

What was measured:
[1] = target: T1, Hairless protein, endogenous in embryos (Drosophila (endogenous in wild type embryos)); assay: co-IP; protein extracts of approximately 500 wild type embryos; IP with rabbit anti-Hairless A or guinea pig anti-CycG antiserum, Western blot with rat antisera; mock without primary antiserum
[2] = target: T2, Cyclin G protein, endogenous in embryos (Drosophila (endogenous in wild type embryos)); assay: as above
[3] = target: T3, full length Hairless (HFL) (Drosophila); assay: two-hybrid; qualitative pairwise yeast two-hybrid assay (blue coloured colonies); pEG DNA-binding fusions, pJG and VP16 activation domain fusions; empty vectors as mock

Row | Binder | binding [3] | further results
1 | B1 | – | binding [1]: binds
2 | B2 | – | binding [2]: binds
3 | B3 | binds | –
4 | B4 | no binding | –
